# About 6,100 (1.1%) of roughly 580,000 compounds were called active. Inconclusive results, whose numbers are uncertain, are shown with a selection of clear calls. Calls follow the shape of the dose curve; as a rule, active = well fitted inhibition curve with a large enough effect; inconclusive = small, poorly fitted or top-dose-only effect, or another doubt; inactive = no such curve, though single readings can be large or run the other way. Potencies beside an inconclusive call are fits to weak or partial responses and may not hold up.
# Chains of the proteins cited; added tags and fusions are not shown. Lines headed by an entry give the natural chain unless they say otherwise; changes in a name come on top.
# UniProt P18054: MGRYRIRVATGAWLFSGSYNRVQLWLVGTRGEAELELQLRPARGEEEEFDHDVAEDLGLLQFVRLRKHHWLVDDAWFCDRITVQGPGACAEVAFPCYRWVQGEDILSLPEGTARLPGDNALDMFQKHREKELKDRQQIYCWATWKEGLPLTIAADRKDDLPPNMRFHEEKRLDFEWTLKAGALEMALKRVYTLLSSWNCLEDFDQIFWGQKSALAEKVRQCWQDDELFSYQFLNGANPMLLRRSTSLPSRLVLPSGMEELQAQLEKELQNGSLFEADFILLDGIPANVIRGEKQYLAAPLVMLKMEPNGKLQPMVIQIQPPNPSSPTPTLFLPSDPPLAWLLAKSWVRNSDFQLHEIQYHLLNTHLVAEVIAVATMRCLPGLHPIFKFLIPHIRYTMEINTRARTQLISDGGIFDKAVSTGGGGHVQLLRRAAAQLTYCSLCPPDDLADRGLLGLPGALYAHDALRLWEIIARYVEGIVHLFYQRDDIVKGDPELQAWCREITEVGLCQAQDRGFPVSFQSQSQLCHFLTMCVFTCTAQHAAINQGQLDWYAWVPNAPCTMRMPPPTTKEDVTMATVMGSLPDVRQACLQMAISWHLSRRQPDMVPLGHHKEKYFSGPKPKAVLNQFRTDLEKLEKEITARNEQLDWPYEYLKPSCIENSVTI
# Molecular target: Polyunsaturated fatty acid lipoxygenase ALOX12 (Homo sapiens) (UniProt P18054)
# Assay: Primary qHTS assay for inhibitors of human arachidonate 12S-lipoxygenase (ALOX12): Round 2
# Settings: purified 12hLO, xylenol orange hydroperoxide absorbance; activity change, negative = inhibition: at 108 µM (top of the series) unless noted
# How it was run: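 Purified human 12hLO at 150 nM in 25 mM Hepes, 0.01% Triton X-100, pH 7.0, preincubated 15 min at room temperature with compound. Reaction started with 40 uM arachidonic acid, 30 min at room temperature. Hydroperoxide measured by Fe-xylenol orange, 573/405 nm absorbance ratio.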
# % is scaled to controls: 0 for no effect and ±100 for the full control effect; potency is read from the fitted curve at half-maximal effect.
SMILES,"activity change, negative = inhibition",Potency
CC(Sc1nc2ccccc2o1)c1nc2ccccc2c(=O)[nH]1 (stereo not drawn),inactive: -4.36%,–
CN1C(=O)C2(CCN(C(=O)c3ccnn3C)CC2)c2ccccc21,inactive: 25.9%,–
Cc1cc(C)c2c(=O)c3c(oc2c1)C(=O)N(CCCOC(C)C)C3c1ccccc1F (stereo not drawn),–,"inconclusive: 63.1 µM [inhibitor, partial curve, poor fit]"
COc1cccc(CC(=O)Nc2c(C(=O)N3CCN(c4ccccc4F)CC3)oc3ccccc23)c1,–,"inconclusive: 79.4 µM [inhibitor, partial curve, poor fit]"
COc1ccc(NC(=O)N[C@H]2C[C@@H](c3nc(-c4ccc(F)cc4)no3)N(C)C2)cc1,–,"inconclusive: 126 µM [inhibitor, partial curve, poor fit]"
Cc1nc2c(c(=O)[nH]1)C(c1ccc(OCc3cccc(Cl)c3)cc1)CC(=O)N2 (stereo not drawn),inactive: 32.8%,–
CCN(CC)CCNC(=O)c1ccc(NC(=O)c2cc(-c3ccco3)nc3ccccc23)cc1,–,"inconclusive: 44.7 µM [inhibitor, partial curve, poor fit]"
CCc1ccc(-c2csc(Nc3ccc(O)c(C(=O)O)c3)n2)cc1,–,"inconclusive: 44.7 µM [inhibitor, partial curve, poor fit]"
COc1ccccc1Nc1nc(-c2c[nH]c(C(=O)N3CCCC3)c2)cs1,inactive: -20.6%,–
CC(C)Nc1nc(-c2ccccc2O)nc2ccccc12,–,"inconclusive: 44.7 µM [inhibitor, single point]"
O=C(NCc1nnc2ccc(-c3ccc(Cl)cc3)nn12)c1ccc(Cl)s1,–,"inconclusive: 1.12 µM [inhibitor, full curve, poor fit]"
COc1cc(C2CC(=O)c3c([nH]c(C(=O)OC4CCCC4)c3C)C2)cc(OC)c1OC (stereo not drawn),inactive: -16.9%,–
Cc1ccc(NC(=S)c2ccc3ccccc3n2)c(C)c1,inactive: -26.7%,–
Clc1ccc(-c2cn3cc(Cc4ccccc4)sc3n2)cc1,–,"inconclusive: 20 µM [inhibitor, partial curve, poor fit]"
CCOC(=O)N1CCN(C(=O)CSCc2nc(-c3ccccc3F)oc2C)CC1,–,"inconclusive: 28.2 µM [inhibitor, partial curve, poor fit]"
COc1ccc(C(=O)OC(C)C(=O)Nc2c(C)n(C)n(-c3ccccc3)c2=O)cc1 (stereo not drawn),–,"inconclusive: 0.398 µM [inhibitor, full curve, poor fit]"
COc1cc(C(F)(F)F)c(C(=O)N(C)Cc2cccc(Cl)c2)cn1,–,"inconclusive: 44.7 µM [inhibitor, partial curve, poor fit]"
O=C(/C=C/c1cn(-c2ccccc2)nc1-c1cccs1)NCCN1CCOCC1,–,"inconclusive: 17.8 µM [inhibitor, full curve]"

# 2 consecutive records out of the list so far:
SMILES,"activity change, negative = inhibition",Potency
O=C(NCc1nnc2ccc(-c3ccc(Cl)cc3)nn12)c1ccc(Cl)s1,–,"inconclusive: 1.12 µM [inhibitor, full curve, poor fit]"
COc1cc(C2CC(=O)c3c([nH]c(C(=O)OC4CCCC4)c3C)C2)cc(OC)c1OC (stereo not drawn),inactive: -16.9%,–

# — PubChem BioAssay AID1671190 (National Center for Advancing Translational Sciences (NCATS), 2021)
